Measurements as given in patent publication EP4591861A1 (IBIOME Biotechnology Co., Ltd., priority 2022, dated 2024).

Conditions: intraperitoneal injection, 10 mg/kg; 0h to 12h after administration; frozen brain sections, IMS imaging mass spectrometry

SMILES: CC(CCC(=O)[O-])[N+](C)(C)C (stereo not shown) [4-TMAP, 4-(trimethylammonio) pentanoate]
- changes in the content of 4-TMAP in brain tissue: can directly enter the brain tissue through the blood-brain barrier
